Values from PubChem BioAssay AID1053208 (Peter MacCallum Cancer Centre, 2014).
This is a random part of about 17,000 reagents tested. 788 of them (4.7%) were called active. 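Calls rest on z-score classes alone; an extra cut-off of viability at most 70% of control was not applied to them.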 A number with no mark means an inactive call. Reagents against one gene are numbered here.

Screen: 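Synthetic lethal interactions between gene loss and doxorubicin in osteosarcoma cells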 (primary screen)
System: mouse osteosarcoma cells, early-passage culture from an engineered mouse model of fibroblastic bone tumour
Reagents: siRNA pool against mouse genes, 40 nM
Duration: about 120 h (48 h before drug, then 72 h with drug)
Treatment: doxorubicin 100 nM for 72 h, roughly 30-40% inhibitory dose
Measured: 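Luminescent ATP signal taken as viability with or without 100 nM doxorubicin for 72 h; mean of two wells set against non-targeting siRNA and turned into robust z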
Reading the numbers: viability z-score with doxorubicin and doxorubicin viability vs non-targeting: higher = more viable cells under doxorubicin; viability z-score without drug: higher = more viable cells with knock-down alone; z-score of drug to no-drug ratio: higher = less drug sensitisation by knock-down
Active means: 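a pool counts as active when its viability z-score with doxorubicin is -2 or below and its z-score without drug lies between -2 and 2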

| gene | reagent no. | combined z-score class | viability z-score with doxorubicin | viability z-score without drug | z-score of drug to no-drug ratio | doxorubicin viability vs non-targeting |
| --- | --- | --- | --- | --- | --- | --- |
| Zfp870 (zinc finger protein 870) | 1 | no change with or without drug | 0.67 | 0.51 | 0.45 | 1 |
| Tomm40 (translocase of outer mitochondrial membrane 40) | 1 | low cell count without drug only | -0.67 | -2.19 | 1.01 | 0.88 |
| Ndst3 (N-deacetylase/N-sulfotransferase (heparan glucosaminyl) 3) | 1 | low cell count without drug only | -1.12 | -2.19 | 0.45 | 0.84 |
| B4galnt3 (beta-1,4-N-acetyl-galactosaminyl transferase 3) | 1 | no change with or without drug | 0 | -0.17 | 0.22 | 0.94 |
| Lias (lipoic acid synthetase) | 1 | no change with or without drug | -0.34 | -0.17 | -0.11 | 0.91 |
| Cdh15 (cadherin 15) | 1 | no change with or without drug | 0.79 | -0.51 | 1.35 | 1.01 |
| Brd10 (bromodomain containing 10) | 1 | no change with or without drug | 0.67 | 0.51 | 0.45 | 1 |
| Incenp (inner centromere protein) | 1 | low cell count without drug only | -0.56 | -2.02 | 1.01 | 0.89 |
| Alg14 (asparagine-linked glycosylation 14) | 1 | no change with or without drug | -1.01 | -1.01 | -0.22 | 0.85 |
| Emx2 (empty spiracles homeobox 2) | 1 | no change with or without drug | 0.22 | 0.67 | -0.11 | 0.96 |
| U2af1l4 (U2 small nuclear RNA auxiliary factor 1-like 4) | 1 | no change with or without drug | 0.9 | -1.18 | 2.02 | 1.02 |
| Usp47 (ubiquitin specific peptidase 47) | 1 | no change with or without drug | -1.69 | -0.17 | -1.57 | 0.79 |
| Usp47 (ubiquitin specific peptidase 47) | 2 | no change with or without drug | -0.45 | 0.34 | -0.56 | 0.9 |
| Or2m13 (olfactory receptor family 2 subfamily M member 13) | 1 | no change with or without drug | -1.57 | -1.52 | -0.56 | 0.8 |
| St13 (suppression of tumorigenicity 13) | 1 | no change with or without drug | -0.45 | -0.34 | -0.11 | 0.9 |
| Naip1 (NLR family, apoptosis inhibitory protein 1) | 1 | no change with or without drug | 0.56 | 0.17 | 0.56 | 0.99 |
| Sec24a (SEC24 homolog A, COPII coat complex component) | 1 | no change with or without drug | -0.34 | 0.17 | -0.34 | 0.91 |
| Capn10 (calpain 10) | 1 | no change with or without drug | 0.22 | 0.17 | 0.22 | 0.96 |
| Tspan3 (tetraspanin 3) | 1 | no change with or without drug | 1.12 | 0.34 | 1.01 | 1.04 |
| Vamp2 (vesicle-associated membrane protein 2) | 1 | no change with or without drug | -0.45 | -0.51 | 0 | 0.9 |
| Stambp (STAM binding protein) | 1 | no change with or without drug | 1.46 | 0.84 | 1.01 | 1.07 |
| Cstpp1 | 1 | no change with or without drug | 1.35 | 0.84 | 0.9 | 1.06 |
| Synj2 (synaptojanin 2) | 1 | no change with or without drug | 1.8 | 1.01 | 1.24 | 1.1 |
| Zdhhc9 (zinc finger, DHHC domain containing 9) | 1 | no change with or without drug | 0 | -0.84 | 0.67 | 0.94 |
| Ceacam12 (CEA cell adhesion molecule 12) | 1 | no change with or without drug | 0.34 | 1.18 | -0.34 | 0.97 |
| Fam177a (family with sequence similarity 177, member A) | 1 | no change with or without drug | 0.34 | 0.17 | 0.34 | 0.97 |
| Lmbrd2 (LMBR1 domain containing 2) | 1 | high cell count with and without drug | 2.02 | 2.19 | 0.67 | 1.12 |
| Gm4836 (predicted gene 4836) | 1 | no change with or without drug | -0.79 | -0.67 | -0.22 | 0.87 |
| Dbndd1 (dysbindin domain containing 1) | 1 | low cell count with doxorubicin only (active) | -2.14 | -1.52 | -1.24 | 0.75 |
| Scrn1 (secernin 1) | 1 | no change with or without drug | -1.01 | 1.01 | -1.57 | 0.85 |
| Plpp7 (phospholipid phosphatase 7 (inactive)) | 1 | no change with or without drug | -0.45 | -0.17 | -0.22 | 0.9 |
| Mylpf (myosin light chain, phosphorylatable, fast skeletal muscle) | 1 | no change with or without drug | 0.9 | 1.01 | 0.34 | 1.02 |
| 3010003L21Rik (RIKEN cDNA 3010003L21 gene) | 1 | no change with or without drug | 1.8 | 0.34 | 1.69 | 1.1 |
| Dnajc24 (DnaJ heat shock protein family (Hsp40) member C24) | 1 | no change with or without drug | -0.56 | -0.17 | -0.34 | 0.89 |

No new results follow: 2 of the entries above.
| gene | reagent no. | combined z-score class | viability z-score with doxorubicin | viability z-score without drug | z-score of drug to no-drug ratio | doxorubicin viability vs non-targeting |
| --- | --- | --- | --- | --- | --- | --- |
| St13 (suppression of tumorigenicity 13) | 1 | no change with or without drug | -0.45 | -0.34 | -0.11 | 0.9 |
| Naip1 (NLR family, apoptosis inhibitory protein 1) | 1 | no change with or without drug | 0.56 | 0.17 | 0.56 | 0.99 |
